# PubChem BioAssay AID1259261 | Sanger Institute, 2017
# Assay: 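siRNA screen across the kinome for kinases that are essential and partners synergising with drugs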 (primary screen)
# Cell system: HCC2998 human colorectal cancer cells
# Reagents: siRNA pool against human genes
# Treatment: anchor drugs BYL719 1 µM, cetuximab 5 µg/ml or trametinib 10 nM, each compared with DMSO vehicle
# Detection: 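Cell viability relative to non-targeting siRNA, averaged over replicates, with robust z-score for siRNA alone and synergy scores with each anchor drug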
# Direction: viability z-score, knock-down alone: higher = more viable cells than controls; viability fraction, knock-down alone: higher = more viable cells; synergy score with BYL719: higher = stronger combined killing with BYL719; synergy score with trametinib: higher = stronger combined killing with trametinib; synergy score with cetuximab: higher = stronger combined killing with cetuximab
# Rule for the call: 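a knock-down is called essential if its robust z-score without drug is under -3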
# Calls: active = essential; inactive = no change
# Shown is a random part of 794 reagents tested. 10 of all reagents (1.3%) were called active. 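Calls reflect knock-down alone without drug; synergy scores with BYL719, cetuximab or trametinib do not affect calls.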 A number with no mark means an inactive call. Viability is capped at 1. Not given: the amount of reagent, the time to read-out.
The opening 4 records as a preview:
target,PubChem SID,"viability z-score, knock-down alone","viability fraction, knock-down alone",synergy score with BYL719,synergy score with trametinib,synergy score with cetuximab
HSPB8,SID56478941,0.931,0.966,0.0457,0.204,-0.0107
CDK11A,SID152154784,-2.22,0.57,-0.118,0.026,0.0748
IGF1R,SID152153009,0.277,0.884,-0.0421,-0.14,-0.0854
MAP4K4,SID56478747,1.21,1,-0.109,-0.0472,-0.0432

Main list, repeating the preview:
target,PubChem SID,"viability z-score, knock-down alone","viability fraction, knock-down alone",synergy score with BYL719,synergy score with trametinib,synergy score with cetuximab
HSPB8,SID56478941,0.931,0.966,0.0457,0.204,-0.0107
CDK11A,SID152154784,-2.22,0.57,-0.118,0.026,0.0748
IGF1R,SID152153009,0.277,0.884,-0.0421,-0.14,-0.0854
MAP4K4,SID56478747,1.21,1,-0.109,-0.0472,-0.0432
MPP3,SID152152750,-0.0251,0.846,0.0335,0.209,0.0184
EIF2AK2,SID56478676,1.21,1,0.000629,0.132,0.0618
TJP2,SID135621862,-0.0853,0.838,-0.129,-0.159,-0.0237
KHK,SID135621242,-0.305,0.811,-0.0712,0.00788,-0.0268
PDGFRB,SID152152554,0.126,0.865,0.132,-0.0109,-0.00394
SRMS,SID56479047,0.663,0.932,0.108,0.0614,0.0723
NME7,SID56479121,1.21,1,-0.109,-0.0392,-0.0432
SF3B1,SID152151347,-3.66 (active),0.389,-0.0565,-0.00484,0.0473
STK36,SID135620924,-1.36,0.678,-0.235,0.0109,-0.17
CLK2,SID152151259,-0.00445,0.848,-0.15,0.0239,0.111
PIKFYVE,SID152154410,-0.164,0.828,-0.0705,-0.129,-0.0668
ACVR1C,SID135620908,-0.597,0.774,-0.0208,-0.0189,-0.144
PASK,SID56478950,-0.24,0.819,-0.00524,0.0354,0.0494
RNASEL,SID56478962,1.18,0.997,0.000469,0.124,-0.0465
LATS1,SID56478819,0.214,0.876,0.153,0.265,-0.035
TWF1,SID56478546,0.691,0.936,0.0091,0.0248,-0.0833
PCK2,SID56479157,0.431,0.903,-0.148,0.0862,-0.105
ITPKC,SID56479112,1.1,0.987,-0.0357,0.0309,0.0411
MAP3K2,SID135620706,-1.58,0.65,-0.208,-0.0704,0.00381
BCOR,SID135620845,-0.609,0.773,0.00598,0.0197,0.00696
NRK,SID152149639,0.295,0.886,0.0678,0.11,0.113
CDK12,SID152151382,-0.348,0.805,-0.138,0.042,-0.0348
MYLK4,SID152150692,0.647,0.93,0.0702,0.123,0.0156
CHEK2,SID152153325,0.806,0.95,0.0367,0.0879,0.0461
LYN,SID135620625,1.21,1,-0.0299,0.111,-0.0432
MLKL,SID56479010,0.841,0.954,-0.0913,-0.0772,-0.0869
PCBP1,SID134316528,-0.253,0.817,-0.0944,-0.11,-0.116
RSKR,SID56478814,0.779,0.947,-0.0493,0.0848,-0.0196
PIK3R2,SID135620607,0.971,0.971,-0.135,-0.149,-0.0714
LMTK1,SID152151616,-0.203,0.823,0.0293,0.162,-0.0759
CDK16,SID152150805,-0.563,0.778,-0.0788,0.168,-0.00801
EPHA4,SID152148822,-0.565,0.778,-0.126,-0.0753,0.0027
MED12,SID152147641,-0.356,0.804,-0.0669,-0.0233,-0.0958
CHKB,SID56479083,0.773,0.946,0.034,0.0336,-0.0518
RAD21,SID134311994,-1.48,0.663,-0.114,-0.0454,-0.021
VRK3,SID135620981,-0.0654,0.841,-0.0543,0.0386,-0.176
ULK4,SID152148607,-0.466,0.79,-0.0432,0.0764,-0.0703
THNSL1,SID152147285,0.128,0.865,0.0382,0.045,0.0319
STRADA,SID152149670,0.906,0.962,-0.102,-0.134,-0.00799
PLK1,SID56478632,-4.26 (active),0.314,0.0148,0.0283,0.000948
MAP2K1,SID56478687,-0.109,0.835,-0.0104,-0.0145,-0.0382
ULK2,SID56479062,-0.389,0.8,-0.126,0.0171,-0.0491
BRAF,SID152153735,-1.48,0.663,0.0275,0.0771,-0.0287
MELK,SID56478756,0.247,0.88,-0.03,0.109,-0.0596
CDK9,SID152156235,0.471,0.908,-0.0717,0.0563,-0.102
TRIM27,SID152155375,0.536,0.916,0.0207,0.0502,-0.084
NME6,SID56479120,-0.0752,0.839,0.00997,0.0341,0.0445
MAP3K8,SID56478664,-1.77,0.627,-0.0773,-0.0215,-0.0582
MATK,SID152153842,0.526,0.915,0.116,-0.0485,0.118
STKLD1,SID152151495,-0.403,0.798,0.0951,0.0865,-0.135
MAP2K3,SID152148115,-0.692,0.762,-0.0659,0.00353,-0.271
PRKAB2,SID134312706,1.21,1,0.00574,-0.00404,-0.0432
PIP4K2A,SID135621253,0.885,0.96,0.0706,0.0252,-0.0725
SMAD2,SID152156776,-0.181,0.826,-0.0267,-0.0189,0.0297
PRP4K,SID152152780,0.746,0.942,0.0502,0.131,0.0723
WIPF1,SID152149422,-2.29,0.562,-0.0576,0.0163,0.0337
CDK14,SID56478888,-0.181,0.826,-0.144,-0.0319,-0.128
AAK1,SID152151067,1.21,1,0.169,0.111,0.101
PANK2,SID152147442,0.127,0.865,-0.195,0.0313,-0.123
